From publication PMC3629208 come the findings set out here.

Chains of the proteins cited; added tags and fusions are not shown. Lines headed by an entry give the natural chain unless they say otherwise; changes in a name come on top.
UniProt P31750: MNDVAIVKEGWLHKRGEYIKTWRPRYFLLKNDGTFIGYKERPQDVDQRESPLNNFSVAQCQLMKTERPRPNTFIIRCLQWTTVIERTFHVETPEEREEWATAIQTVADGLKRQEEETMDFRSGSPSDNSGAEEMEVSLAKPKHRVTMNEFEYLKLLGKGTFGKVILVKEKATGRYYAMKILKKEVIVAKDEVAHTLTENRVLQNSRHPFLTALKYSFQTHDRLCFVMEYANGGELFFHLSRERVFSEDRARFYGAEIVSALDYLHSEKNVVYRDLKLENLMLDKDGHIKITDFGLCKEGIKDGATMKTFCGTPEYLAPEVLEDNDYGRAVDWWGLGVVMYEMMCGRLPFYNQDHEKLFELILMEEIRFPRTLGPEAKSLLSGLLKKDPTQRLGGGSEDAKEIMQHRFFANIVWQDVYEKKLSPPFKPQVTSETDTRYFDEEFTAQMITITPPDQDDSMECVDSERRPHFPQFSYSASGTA
UniProt O35129: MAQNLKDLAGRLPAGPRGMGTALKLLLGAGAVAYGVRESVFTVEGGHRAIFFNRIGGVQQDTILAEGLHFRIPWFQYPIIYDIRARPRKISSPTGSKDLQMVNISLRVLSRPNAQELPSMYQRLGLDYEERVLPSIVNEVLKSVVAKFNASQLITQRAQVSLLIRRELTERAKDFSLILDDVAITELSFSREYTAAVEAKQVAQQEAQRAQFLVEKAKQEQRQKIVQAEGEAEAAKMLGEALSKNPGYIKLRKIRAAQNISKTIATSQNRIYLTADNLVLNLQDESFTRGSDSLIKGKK
UniProt P63101: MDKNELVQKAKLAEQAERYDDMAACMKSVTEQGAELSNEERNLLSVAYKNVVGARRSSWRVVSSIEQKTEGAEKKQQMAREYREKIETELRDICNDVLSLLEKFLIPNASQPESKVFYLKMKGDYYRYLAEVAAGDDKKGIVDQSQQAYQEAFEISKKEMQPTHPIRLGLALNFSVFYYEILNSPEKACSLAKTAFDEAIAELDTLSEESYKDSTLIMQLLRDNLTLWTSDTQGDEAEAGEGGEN
UniProt O35685: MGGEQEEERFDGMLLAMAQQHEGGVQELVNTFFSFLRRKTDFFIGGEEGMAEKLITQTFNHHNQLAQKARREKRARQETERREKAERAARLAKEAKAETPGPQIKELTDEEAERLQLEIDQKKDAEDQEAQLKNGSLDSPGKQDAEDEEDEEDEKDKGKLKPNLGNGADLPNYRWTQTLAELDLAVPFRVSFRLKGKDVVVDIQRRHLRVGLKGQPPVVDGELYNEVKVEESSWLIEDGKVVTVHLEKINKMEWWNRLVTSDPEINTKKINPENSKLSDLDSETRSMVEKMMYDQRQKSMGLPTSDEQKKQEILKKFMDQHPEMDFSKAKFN
UniProt P63085: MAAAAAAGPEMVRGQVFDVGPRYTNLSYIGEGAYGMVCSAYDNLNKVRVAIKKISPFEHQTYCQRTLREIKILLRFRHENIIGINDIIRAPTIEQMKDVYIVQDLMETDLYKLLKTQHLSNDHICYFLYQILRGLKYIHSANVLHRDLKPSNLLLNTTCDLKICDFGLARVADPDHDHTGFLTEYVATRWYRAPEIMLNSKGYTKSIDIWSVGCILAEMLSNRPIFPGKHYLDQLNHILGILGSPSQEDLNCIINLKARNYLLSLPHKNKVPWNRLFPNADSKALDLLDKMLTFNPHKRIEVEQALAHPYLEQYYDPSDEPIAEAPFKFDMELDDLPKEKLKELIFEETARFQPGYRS

Results are given in words; binding and its absence hold for the method and conditions named. Binding seen in cells or lysates may run through a third protein. A yes stands for co-enrichment or nearness to the bait. Other partners may have been found. For part of these data: A no says only that the protein was not detected with the bait.

Assay [1] has as its target Akt (protein kinase B), Akt1 (mouse (endogenous in Neuro 2A)) (UniProt P31750). The assay can be described thus: affinity purification with mass spectrometry; anti-Akt antibody fixed on the beads via DSS but without DSP-crosslinking, Neuro 2A lysate, nanoLC-MS/MS.
Assay [2] has the same target. The assay can be described thus: condition: only with neither DSS- nor DSP-crosslinking; affinity purification with mass spectrometry; conventional co-IP with neither DSS- nor DSP-crosslinking: protein A/G agarose with anti-Akt antibody, pre-cleared Neuro 2A lysate overnight, five washes, elution in Laemmli buffer, nanoLC-MS/MS.
Assay [3] shares this target. The assay can be described thus: affinity purification with mass spectrometry; two-step crosslinking co-IP: anti-Akt antibody fixed on protein A/G agarose with DSS, incubated overnight at 4°C with pre-cleared Neuro 2A lysate (1.5 mg protein; PBS, 1% NP-40), then 1.6 mM DSP for 2 h, five washes (25 mM Tris, 150 mM NaCl, 1 mM EDTA, 1% NP-40, 5% glycerol, pH 7.4), elution in Laemmli buffer, SDS-PAGE, nanoLC-MS/MS; cells with or without IGF-1 (10 ng/mL, 10 min); negative control serum IgG or secondary antibody.

As for “valosin-containing protein (VCP) (from UniProt Q01853 1-806)”, the binding result in assay [1] was “no binding (only without DSP-crosslinking)”; in assay [2], “no binding”; in assay [3] it was “binds”.

Regarding “prohibitin-2 (from UniProt O35129 1-299)”, the binding result in assay [1] was “no binding (only without DSP-crosslinking)”; in assay [2], “no binding”; in assay [3] it was “binds”.

As to 14-3-3 ζ/δ (from UniProt P63101 1-245), the binding result in assay [1] is reported as “no binding (only without DSP-crosslinking)”; in assay [2], “no binding”; in assay [3], “binds”.

As to “nuclear distribution gene C (Nudc, also named nuclear migration gene C) (from UniProt O35685 1-332)”, the binding entry is reported as “no binding (only without DSP-crosslinking)” in assay [1], “no binding” in assay [2] and “binds” in assay [3].

Turning to “extracellular regulated kinase-1 and -2 (ERK1/2) (from UniProt P63085 1-358)”, the figures for the binding result in assay [1], in assay [2] and in assay [3] were “binds”, “no binding” and “binds”, respectively.
